This is one part of the list. These are further read-outs of the screen, such as a control signal, another cell line or another target. No call is given for them. The list favours compounds with an active or inconclusive main result. Potencies come from curve fits of mixed quality, noted in brackets.
Assay: Cell signaling CRE-BLA (Fsk stim)
Settings: CHO CRE-bla reporter (cAMP response element driving beta-lactamase), forskolin EC10, beta-lactamase ratio; measured here: 460 nm blue channel
In short: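 CRE-bla CHO cells stimulated with EC10 NKH 477 (water-soluble forskolin) and compound titrations, 3 h at 37C; beta-lactamase read with CCF4 after 2 h at room temperature. Activity from 460/530 nm emission ratio, AC50 values for positive or negative modulation.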

SMILES | AC50
COc1ccc(C(CNC(=O)c2ccc(-n3cnnn3)cc2)N2CCOCC2)cc1 (stereo not given) | 0.158 µM [falling, full curve]
CC(C#N)Sc1ncnc2sc3c(c12)CCC3 (stereo not given) | 12.6 µM [rising, single point]
Cc1cc(CN2C(=O)c3ccccc3C2=O)cc(N2CCOCC2)c1 | 3.98 µM [rising, single point]
CCOc1cc(NC(=O)c2ccco2)c(OCC)cc1NC(=O)Cc1ccc(OC)c(OC)c1 | 10 µM [rising, partial curve]
CSc1nc2c(c(=O)n1-c1ccc(C)cc1)SCC2 | 6.31 µM [rising, full curve]
COc1ccc(CNC(=O)CCS(=O)(=O)c2cccc3nonc23)cc1 | 5.01 µM [rising, single point]
O=C(O)c1cc(-c2ccncc2)nc2ccc(S(=O)(=O)N3CCOCC3)cc12 | 25.1 µM [falling, single point]
O=C(c1ccco1)N1CCN(c2ncnc3c2oc2ccccc23)CC1 | 10 µM [rising, single point]
COc1ccc(-c2ccc(-c3noc(-c4cccs4)n3)c(OC)n2)cc1 | 10 µM [rising, partial curve]
Cc1ccc(NC(=O)CN(C)S(=O)(=O)c2cccc3nsnc23)cc1Cl | 2 µM [falling, partial curve]
CSCC[C@H](NC(=O)OC(C)(C)C)c1nnc(SCC(=O)Nc2c(C)cccc2C)o1 | 12.6 µM [falling, single point]
COC(=O)c1sccc1NC(=O)c1cccnc1 | 12.6 µM [rising, partial curve]
O=C(Nc1cc(C(F)(F)F)ccc1Cl)c1cc(C2CC2)on1 | 0.00398 µM [falling, full curve]
Cc1ccc(-c2ccc(=O)[nH]n2)cc1 | 15.8 µM [rising, single point]
O=c1c2oc3ccccc3c2ncn1Cc1ccccc1Cl | 20 µM [rising, single point]
Cc1ccc2c(C)nc(Nc3nc(CSc4nnnn4-c4ccccc4)cc(=O)[nH]3)nc2c1 | 12.6 µM [rising, single point]
Cc1ccc(-c2nn(CC(C)(C)C)c3ncnc(N)c23)cc1 | 0.126 µM [rising, full curve]
CCC(C)N(C(=O)COC(=O)c1cn(CC)c2nc(C)ccc2c1=O)C1CCS(=O)(=O)C1 (stereo not given) | 25.1 µM [rising, single point]
Cc1ccc2cc3c(NC(=O)c4ccco4)nn(C)c3nc2c1 | 10 µM [rising, partial curve]
CCOC(=O)CC1=NS(=O)(=O)c2ccccc2N1 | 15.8 µM [rising, single point]
C=CCc1c(C)[nH]c2ccc(C)cc2c1=O | 0.00316 µM [falling, full curve, poor fit]
O=C1CC(O)(C(F)(F)F)Oc2c1ccc1ccccc21 (stereo not given) | 15.8 µM [falling, single point]
COCCn1c(=O)c(-c2cccc(C#N)c2)nc2cnc(N3CCNCC3)nc21 | 10 µM [rising, partial curve]
Cc1cc(C)c2c3c(sc2n1)C1(CCSCC1)C(C#N)=C(N)O3 | 10 µM [rising, single point]

5 structures already listed, ordered by molar mass, low to high.
SMILES | AC50
CC(C#N)Sc1ncnc2sc3c(c12)CCC3 (stereo not given) | 12.6 µM [rising, single point]
Cc1ccc(-c2nn(CC(C)(C)C)c3ncnc(N)c23)cc1 | 0.126 µM [rising, full curve]
Cc1cc(CN2C(=O)c3ccccc3C2=O)cc(N2CCOCC2)c1 | 3.98 µM [rising, single point]
Cc1cc(C)c2c3c(sc2n1)C1(CCSCC1)C(C#N)=C(N)O3 | 10 µM [rising, single point]
Cc1ccc(NC(=O)CN(C)S(=O)(=O)c2cccc3nsnc23)cc1Cl | 2 µM [falling, partial curve]

Next part.

SMILES | AC50
CN1CC2(C(=O)c3ccccc3)CN(C)CC(C(=O)c3ccccc3)(C1)C2 | 0.126 µM [rising, full curve]
CCc1c(O)nc(SCC(=O)NCc2ccco2)[nH]c1=O | 25.1 µM [rising, single point]
COC(=O)CSc1cc(SCC(=O)OC)c(C#N)c(SCC(=O)OC)c1 | 10 µM [rising, single point]
Cc1ccc(-c2nn(C)c(=O)c3ccccc23)cc1CNS(C)(=O)=O | 10 µM [rising, partial curve]
CC(=O)C(Sc1nc(N2CCOCC2)nc(N2CCOCC2)n1)C(=O)Nc1ccccc1 (stereo not given) | 7.94 µM [falling, partial curve]
COc1ccccc1NC(=O)c1cc2ccc(O)cc2o/c1=N\O | 15.8 µM [rising, single point]
COc1ccc(C(=O)NCc2nnc(SCC(=O)Nc3cc(C)cc(C)c3)o2)cc1OC | 25.1 µM [rising, partial curve, poor fit]
COc1ccc(-c2nn(-c3ccccc3)cc2/C=N/n2cnnc2)cc1OC | 10 µM [rising, single point]
COc1ccc(Oc2ncc3ncc(=O)n(C)c3n2)cc1 | 10 µM [rising, partial curve]
O=C1c2ccccc2C(Nc2ccc3nc(-c4cccnc4)[nH]c3c2)N1Cc1ccco1 (stereo not given) | 10 µM [rising, partial curve]
COc1ccc(-c2cc(C(F)(F)F)nc(N3CCCCC3)n2)cc1OC | 0.501 µM [rising, full curve]
O=C(CSc1ccc2nnc(-c3cccs3)n2n1)N1CCOCC1 | 12.6 µM [rising, single point]
c1ccc2c3nnc4n(c-3nc2c1)CCCS4 | 0.00316 µM [falling, full curve, poor fit]
CCN(CC(=O)Nc1ccc2c(c1)OCCO2)C(=O)c1cccc(S(=O)(=O)N2CCOCC2)c1 | 0.00631 µM [falling, full curve, poor fit]
Cn1c(SCC(=O)c2ccccc2)nc2cccnc21 | 10 µM [rising, single point]
O=C(CN(CC1CCCO1)S(=O)(=O)c1ccc(S(=O)(=O)NC2CC2)cc1)Nc1ccccc1 (stereo not given) | 5.01 µM [falling, single point]
Cc1cc(C(=O)Nc2c(F)cc(F)cc2Br)no1 | 12.6 µM [falling, partial curve]
Cc1noc(C)c1C(=O)Nc1nc(C23CC4CC(CC(C4)C2)C3)cs1 | 20 µM [falling, single point]
CCOc1cc(C(=O)OCc2ccc(C(=O)OC)o2)cc(Br)c1OC | 10 µM [rising, single point]
CC(=O)N1CCCc2cc(S(=O)(=O)N3CCN(C4CCCCC4)CC3)ccc21 | 3.98 µM [falling, single point]
COc1cc(C)c(C(C)C)cc1S(=O)(=O)n1cnc(C)c1 | 10 µM [rising, partial curve]
N#Cc1nc(-c2ccccc2F)oc1NC1CCCCC1 | 2.51 µM [rising, full curve]
CC(=O)Nc1ccc(NC(=O)CCC(=O)NCCO)cc1 | 0.158 µM [falling, partial curve]
O=C(Nc1ccccn1)NC1CCS(=O)(=O)C1 (stereo not given) | 0.316 µM [rising, partial curve]

SMILES | AC50
CCOC(=O)C1CCN(C(=O)Nc2ccccc2Cl)CC1 | 0.251 µM [rising, full curve, poor fit]
CCn1c(SCC(=O)Nc2ccccc2N2CCCCC2)nc2c1c(=O)n(C)c(=O)n2C | 10 µM [rising, partial curve]
CCOC(=O)c1cc(C(=O)c2cc(F)ccc2O)coc1=N | 5.01 µM [falling, single point]
Clc1ccc(-c2nnc(SCc3ccon3)o2)c(Cl)c1 | 7.94 µM [rising, partial curve]
Cc1nc2cnc(Oc3ccccc3)nc2n(Cc2cccs2)c1=O | 12.6 µM [rising, partial curve]
CCOC(=O)c1cc(-c2nnc(SCC(=O)Nc3ccc(F)cc3)o2)c(C)nc1C | 5.01 µM [falling, single point]
COC(=O)c1c(NC(C)=O)sc2c1CCCC2 | 12.6 µM [rising, single point]
COn1c(SCc2cccnc2)nc2ccccc2c1=O | 10 µM [rising, single point]
O=C(CSc1ncn[nH]1)NCCCc1ccccc1 | 25.1 µM [falling, single point]
CCc1c(C(=O)Nc2ccc(S(=O)(=O)N3CCOCC3)cc2)csc1C | 3.98 µM [falling, full curve, poor fit]
COCCCn1c2nc3ccccc3nc2c2c(=O)n(-c3ccccc3OC)cnc21 | 10 µM [rising, partial curve]
O=C(O)CCN1Cc2ccccc2C1=O | 3.16 µM [falling, single point]
Cc1ccccc1CS(=O)(=O)Cc1ccc(C(=O)NCC2CCCO2)o1 (stereo not given) | 0.01 µM [falling, full curve, poor fit]
COc1cccc(-c2cc(C(=O)NC3CCCC3)no2)c1 | 0.0631 µM [falling, full curve]
CCOc1cc2c(cc1OCC)C(C(=O)O)C(c1cc(OC)c(OC)c(OC)c1)N(C)C2=O (stereo not given) | 0.0631 µM [falling, full curve, poor fit]
COc1ncc2nc(C)c(=O)n(C3CC3)c2n1 | 15.8 µM [rising, partial curve]
Cc1ccsc1C(=O)OCc1csc(-c2ccccc2)n1 | 1.58 µM [falling, partial curve]
Cc1ccc(C)c(NC(=O)CSc2nnc(-c3ccncc3)n2N)c1 | 2 µM [falling, full curve, poor fit]
CCOC(=O)COc1ccc2nsnc2c1 | 0.794 µM [falling, full curve, poor fit]
CN(C(=O)c1ccco1)c1nnc(C23CC4CC(CC(C4)C2)C3)s1 | 10 µM [rising, partial curve]
COc1ccccc1-c1cc(C2CC2)nc(N)c1C#N | 10 µM [rising, partial curve]
Cc1ccc(N(CC(=O)N2CCc3ccccc32)C2=NC(=O)CS2)cc1 | 0.126 µM [falling, full curve, poor fit]

— PubChem BioAssay AID662 (National Center for Advancing Translational Sciences (NCATS), 2007)
